Mtb cholesterol medium: 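Whole-cell growth test on Mycobacterium tuberculosis, read after 4 days in a medium based on cholesterol and the lipid DPPC; the read-out is not stated. Compounds at 50 µM. The record gives no direction; compounds that gave an IC50 in retests scored well above the rest, so higher reads as more growth inhibition. Size under these conditions: about 69,000 compounds, about 370 of them at 50% or above in at least one test.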
Mtb glucose medium: 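Phenotypic screen: M. tuberculosis growth, glucose 7H9 medium, 3 days; the read-out is not stated. Tested at 50 µM. Direction is inferred from retests: higher values go with more growth inhibition. Size under these conditions: about 69,000 compounds, about 760 of them at 50% or above in at least one test.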

Values are the deposited “Percent Effect”, in %. The record does not define 0% and 100%; most values in the screen are far below 50% and negative numbers occur (in some assays of this library far below -100). Compounds were drawn at random from those tested, without regard to their results. Two or more numbers in one place are separate tests of the same structure; such repeats can differ widely.

structure,Mtb cholesterol medium,Mtb glucose medium
O=C1CN(c2ccc(CNC(=O)NCc3ccoc3)cc2)CCN1,-6.606%,4.723%
Nc1cc(-c2c[nH]nc2C2CCCCN2C(=O)C2CCCC2)ccn1 (configuration not stated),-3.479% and 48.4%,-8.303%
CCS(=O)(=O)N(C)C1CCN(C(=O)c2ccc(Cl)cc2)CC1,3.665%,-10.76% and -3.935%
CN(Cc1ccccc1)CC1(O)CCCN(CC(C)(C)C)C1=O (configuration not stated),6.754%,-1.77% and 23.07%
COc1cc(CNc2nncs2)cc(OC)c1OC,-19.58%,2.605% and 16.44%
O=C(O)C(F)(F)F.[H][C@@]12C[C@H](C(=O)NCC(C)C)[C@@]([H])(CN(CCC(C)C)C1)O2,3.02%,11.53%
Cc1cccc(C(=O)N2CCN(CCOC(C)C)CC2)n1,-3.412%,16.23%
Cc1cnn(C2CCCN(C(=O)COc3ccc(C(N)=O)cc3)C2)c1 (configuration not stated),13.28%,19.69%
COCc1nc(C(=O)N2CCN(Cc3cc(C)on3)CC2)cs1,5.509%,8.73% and -9.021%
CC(C)n1cnnc1CN(C)Cc1cnc(-c2cccs2)nc1,1.003% and 2.531%,-8.321%
Cc1cnc(CN(C)C2CCN(CCn3cc(C#N)cn3)C2)o1 (configuration not stated),-16.8%,-24.44%
Cc1ccc2nc(CN3CCCCC3CCn3cccn3)cn2c1 (configuration not stated),-7.983%,11.87%
Cc1ccc2[nH]c(-c3cn(C4CCNCC4)nn3)nc2c1C,2.151%,13.09%
CN(C)c1nccc(CNC(=O)NCc2ccco2)n1,11.14%,4.041%
CO[C@H]1CCN(S(=O)(=O)c2cccs2)[C@H]1Cc1ccncc1,-14.75%,-0.2373%
CCOc1nnc(CN2CCOC(CNc3cccnn3)C2)s1 (configuration not stated),-18.92%,-16.64%
CCNc1cc2c(nn1)CCN(C(=O)CC1CCCCC1)C2,-3.862%,3.296%
CC(CNC(=O)c1ccc(Cl)cc1F)N1CCN(C)CC1 (configuration not stated),14.26%,-32.85% and 3.296%
N#Cc1cccnc1NCCNC(=O)N1CCN2CCCCC2C1 (configuration not stated),-13.95%,-10.37% and -24.85%
Cc1ccc(NC(=O)Cc2cnc3n(C)c(=O)[nH]c(=O)n23)cc1,4.319%,5.889%
O=C(Cc1ccsc1)N1CCC(c2noc(-c3ccncc3)n2)CC1,-20.97%,-5.445%
Cc1nonc1OCCNc1ncnc2sc3c(c12)CCNC3,-8.069%,-16.58%
O=C(CCn1ncc2c(Cl)cccc21)NCC1CC1,-5.981%,3.365%
Cc1ccc(S(=O)(=O)N2CCCCC(N3CCN(C)CC3)C2)cc1F (configuration not stated),22.68%,-7.609% and -2.952%
[H][C@]12CC[C@]([H])(CN(C(=O)c3ccc4c(c3)OCO4)C1)N(CC=C(C)C)C2,-7.091%,10.6% and -32.98%
CCS(=O)(=O)N1CCC(c2nnc(CN3CCOCC3)n2C)CC1,2.389%,26.68%
CCC(=O)N1CCN(c2ccc(C(=O)OC)cc2)CC1C (configuration not stated),4.191%,9.891%
CN(C)S(=O)(=O)Nc1ccc(-n2nccc2C(F)(F)F)cc1,1.593%,11.92% and -14.66%
Cc1ccc(C)c(Oc2cc(-n3nc(C)c(C#N)c3N)nc(C)n2)c1,7.5%,1.928% and 11.63%
CN1CC(=O)N(c2ccsc2)CC12CCN(Cc1cnn(C)c1)C2.O=C(O)C(F)(F)F.O=C(O)C(F)(F)F (configuration not stated),-11.36%,-47.36%
Cn1c2ncccc2c(=O)n1CC(=O)Nc1ccc(F)c(F)c1,3.606%,4.1%
Cc1csc(N2CCN(Cc3cnc4c(c3)c(C)nn4C)CC2)n1,-7.797%,-10.35%
CCN(Cc1csc(C)n1)c1cccc(CO)c1,-4.808% and 1.926%,26.34%
Cn1nnc2c1C(COCC1CC1)CN(C(=O)CC1=CCCCC1)C2 (configuration not stated),-19.13%,-5.313%
Nc1nccc(NCc2cc3n(n2)CCCN(C(=O)C2CCC2)C3)n1,-16.19%,-8.036%
Cc1[nH]nc2ncc(C(=O)N3CCN(CC(C)C)CC3)cc12,10.29%,5.222%
COC(=O)C(C)N1CCCc2cc(OC)ccc2C1 (configuration not stated),4.285%,15.97%
C=C(C)CN1CCC(NC(=O)Nc2ccc(F)c(C(=O)NC)c2)CC1,-13.47%,-6.631%
Cc1cc(S(=O)(=O)NCC(C)(C)N)c(F)cc1F.Cl,-15.91%,24.67%
COc1cccc(CNC(=O)c2nc3c(o2)CN(S(C)(=O)=O)C3)c1,0.801%,-2.216% and -22.5%
COC(=O)CC1CCN(C(=O)c2ccc(C)cc2)CC1,9.519%,8.162%
N#Cc1c(F)cccc1N1CCC(C(=O)Nc2nccs2)CC1,-1.108%,18.2%
O=C(Cn1c(=O)nc2n1C(=O)N(c1ccccc1)C2)NC1CCCCC1,-5.754%,3.41%
Cc1cc(C(=O)N2CCCN(c3nccs3)CC2)c(C)n1C(C)C,1.046%,11.99% and -26.22%
CC(C)(C)n1ncc2c1CCCC2NCc1cccc(C(N)=O)c1 (configuration not stated),14.9%,25.5%
Cc1cccc(C)c1OC1CN(Cc2cnc(N3CCOCC3)nc2)C1,-7.506%,1.71%
Cc1c(C(=O)O)cnn1-c1ccc(-c2nc(C3CC3)no2)cn1,-6.156%,30.4% and 1.153%
CC(C)c1nc(CN2CCCC2Cn2cncn2)no1 (configuration not stated),-35.31%,-19.62%
Cc1cnn(CCNCc2csc(-c3ccc(C)o3)n2)c1,-9.856%,-5.028% and 8.754%
CN(Cc1ccc2nonc2c1)C(=O)c1ccc(C2CCCO2)s1 (configuration not stated),23.16%,41.36%
O=C(Cn1cccn1)N(CCO)CCSc1ccc(Cl)cc1,0.8738%,-15.85%
CCc1nc(CC)n(CC(=O)N(C)Cc2ccc(F)cc2)n1,-19.46%,-5.755% and -36.1%
COCc1cc(NCc2cc(F)ccc2F)n2nccc2n1,-12.22%,17.1% and 37.68%
COc1cc(C(=O)N2CCC(Nc3cccnc3)CC2)ccc1C,9.202%,5.698%
Cc1nc(CN2CCCN(CCCc3ccccc3)CC2)no1,11.22%,28.11%
COCCN(C)C[C@@H]1CN(C(=O)C(C)(C)c2ccccc2)C[C@@H]1CO,-22.52%,-35.48%
O=C(NCCn1nc2ccccn2c1=O)c1cc[nH]n1,0.5697%,-10.11%
Cc1ccc(C(C)NCc2c(C(C)C)nn(C)c2N2CCOCC2)o1 (configuration not stated),-16.25%,11.85%

Some entries from above, unchanged:

- CC(CNC(=O)c1ccc(Cl)cc1F)N1CCN(C)CC1 (configuration not stated) | Mtb cholesterol medium: 14.26%; Mtb glucose medium: -32.85% and 3.296%
- COC(=O)CC1CCN(C(=O)c2ccc(C)cc2)CC1 | Mtb cholesterol medium: 9.519%; Mtb glucose medium: 8.162%
- O=C(Cn1cccn1)N(CCO)CCSc1ccc(Cl)cc1 | Mtb cholesterol medium: 0.8738%; Mtb glucose medium: -15.85%
- Cc1cccc(C)c1OC1CN(Cc2cnc(N3CCOCC3)nc2)C1 | Mtb cholesterol medium: -7.506%; Mtb glucose medium: 1.71%
- CC(C)(C)n1ncc2c1CCCC2NCc1cccc(C(N)=O)c1 (configuration not stated) | Mtb cholesterol medium: 14.9%; Mtb glucose medium: 25.5%
- CN1CC(=O)N(c2ccsc2)CC12CCN(Cc1cnn(C)c1)C2.O=C(O)C(F)(F)F.O=C(O)C(F)(F)F (configuration not stated) | Mtb cholesterol medium: -11.36%; Mtb glucose medium: -47.36%

Measurements from “University of Dundee, Small-Polar-MMV Screening Library” (2021), ChEMBL document CHEMBL3988442.